Here are results for twelve molecules from the supplement of paper PMC5393889.

This is one part of the list.

The test system of this assay is Caenorhabditis elegans N2. In words: aldicarb interaction hit call (worm growth perturbed in combination with 10 uM aldicarb in both replicates, no effect as single agent) (binary (1 = interacts)); higher = interacts with aldicarb (growth perturbed). Conditions: first compound 1.5 µM; aldicarb concentration 10 µM; 6 days; 20 °C.
Turning to `CCCN1CCC(C(=O)Nc2cccc(-c3cccc(F)c3)c2)CC1` [wact-320] + CNC(=O)O/N=C/C(C)(C)SC [aldicarb], the “aldicarb interaction hit call” value was inactive: 0.

As to `Cc1cccc(NC(=S)Nc2cc(C)cc(C)c2)c1` [wact-529] + CNC(=O)O/N=C/C(C)(C)SC [aldicarb], the “aldicarb interaction hit call” value was inactive: 0.

Take `Cc1ccccc1SCCNC(=O)c1ccccc1Br` [wact-508] + CNC(=O)O/N=C/C(C)(C)SC [aldicarb]: the “aldicarb interaction hit call” value is inactive: 0.

On to `Cl.Clc1ccc(OCCCN2CCNCC2)cc1Cl` [wact-77] + CNC(=O)O/N=C/C(C)(C)SC [aldicarb], for which the “aldicarb interaction hit call” value was inactive: 0.

Take `Br.Cc1nn2cc(-c3ccc(Cl)cc3)nc2s1` [wact-430] + CNC(=O)O/N=C/C(C)(C)SC [aldicarb]: the “aldicarb interaction hit call” value is inactive: 0.

Turning to `Fc1ccc(-c2ccc(CNC3CC3)o2)cc1Cl` [wact-182] + CNC(=O)O/N=C/C(C)(C)SC [aldicarb], the “aldicarb interaction hit call” value was inactive: 0.

As to `O=C(NCCc1cscn1)c1csc2nc(-c3cccc(Cl)c3)cn12` [wact-256] + CNC(=O)O/N=C/C(C)(C)SC [aldicarb], the “aldicarb interaction hit call” value is inactive: 0.

Take `S=C(NCCc1ccc(Cl)cc1)Nc1ccccc1` [wact-443] + CNC(=O)O/N=C/C(C)(C)SC [aldicarb]: the “aldicarb interaction hit call” value is inactive: 0.

For the molecule `CCOc1ccc(/C=N/NC(=O)c2ccc(-c3ccccc3)cc2)cc1` [wact-397] + CNC(=O)O/N=C/C(C)(C)SC [aldicarb], the “aldicarb interaction hit call” value was inactive: 0.

Regarding `Cl.c1ccc(COc2ccc(CNCc3cccs3)cc2)cc1` [wact-119] + CNC(=O)O/N=C/C(C)(C)SC [aldicarb], the “aldicarb interaction hit call” value is inactive: 0.

Take `COc1ccc(-c2noc(-c3cccc(C)c3)n2)cc1` [wact-13] + CNC(=O)O/N=C/C(C)(C)SC [aldicarb]: the “aldicarb interaction hit call” value was inactive: 0.

For `CCc1ccc(-c2csc(-c3ccncc3)n2)cc1` [wact-64] + CNC(=O)O/N=C/C(C)(C)SC [aldicarb], the “aldicarb interaction hit call” value is inactive: 0.
